This is one part of the list. Residues, ends and D or L forms follow the SMILES beside them. *: point of attachment. Cbz = O=C(OCc1ccccc1)*
Key:
Experiment in all cases: log2 fold change, soluble protein after heating vs DMSO (PISA); higher = thermal stabilisation; K562 cells, 10 uM, 30 min; active = over 0.2 and 3.5 SD of the protein, either way, in both replicates (recomputed)
erlotinib = compound: C#Cc1cccc(Nc2ncnc3cc(OCCOC)c(OCCOC)cc23)c1 [erlotinib]
Method in brief: (§1)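 K562 cells at 2×10^6 cells/mL were exposed to 10 μM compound for 30 min, then aliquots were heated for 3 min across 48°C-58°C, pooled, and extracted in PBS containing 0.5% NP-40 at 4°C. The supernatant after 21,000xg for 90 min was taken as soluble protein and measured by TMTpro 16plex LC-MS/MS with channel sums equalised. Thermal stability is reported relative to control samples, with values from duplicates. Fold changes are given on a log2 scale.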

Amino acid sequences for entries named in this document (tags omitted). A change or cut given only in a name is not applied to a line headed by its entry.
UniProt Q7RTN6: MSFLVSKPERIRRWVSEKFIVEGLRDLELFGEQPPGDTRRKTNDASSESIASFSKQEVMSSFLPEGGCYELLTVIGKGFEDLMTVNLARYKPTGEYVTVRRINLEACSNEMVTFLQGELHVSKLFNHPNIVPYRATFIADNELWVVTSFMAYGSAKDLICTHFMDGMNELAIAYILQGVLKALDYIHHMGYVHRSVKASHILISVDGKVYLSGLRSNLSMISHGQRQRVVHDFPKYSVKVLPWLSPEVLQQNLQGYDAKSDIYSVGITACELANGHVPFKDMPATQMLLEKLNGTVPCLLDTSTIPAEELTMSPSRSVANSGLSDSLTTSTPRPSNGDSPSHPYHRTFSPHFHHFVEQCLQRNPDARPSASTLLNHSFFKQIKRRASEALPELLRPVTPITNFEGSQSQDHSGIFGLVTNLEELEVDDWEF
UniProt P08247, whole entry, looked up: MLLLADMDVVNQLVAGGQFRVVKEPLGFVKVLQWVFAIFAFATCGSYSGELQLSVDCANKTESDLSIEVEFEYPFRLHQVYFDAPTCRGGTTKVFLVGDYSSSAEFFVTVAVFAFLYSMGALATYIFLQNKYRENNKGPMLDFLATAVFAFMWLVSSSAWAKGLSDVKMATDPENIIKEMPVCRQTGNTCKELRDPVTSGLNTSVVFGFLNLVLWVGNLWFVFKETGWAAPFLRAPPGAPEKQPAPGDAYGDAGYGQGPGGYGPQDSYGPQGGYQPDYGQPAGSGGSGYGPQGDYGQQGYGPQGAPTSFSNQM
UniProt Q96A49: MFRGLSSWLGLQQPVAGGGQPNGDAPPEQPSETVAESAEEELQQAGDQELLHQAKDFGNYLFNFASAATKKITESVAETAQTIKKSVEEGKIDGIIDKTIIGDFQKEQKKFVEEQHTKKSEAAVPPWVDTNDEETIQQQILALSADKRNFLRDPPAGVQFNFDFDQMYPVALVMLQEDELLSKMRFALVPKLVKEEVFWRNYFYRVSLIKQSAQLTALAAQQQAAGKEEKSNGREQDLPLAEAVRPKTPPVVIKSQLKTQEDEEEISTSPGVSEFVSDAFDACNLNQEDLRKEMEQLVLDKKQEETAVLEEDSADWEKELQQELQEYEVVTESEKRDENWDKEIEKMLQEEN
UniProt P16949: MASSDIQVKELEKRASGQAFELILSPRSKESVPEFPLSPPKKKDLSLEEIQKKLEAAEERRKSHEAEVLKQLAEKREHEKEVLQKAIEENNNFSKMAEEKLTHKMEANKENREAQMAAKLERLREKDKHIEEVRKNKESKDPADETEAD
UniProt Q86TM6, whole entry, looked up: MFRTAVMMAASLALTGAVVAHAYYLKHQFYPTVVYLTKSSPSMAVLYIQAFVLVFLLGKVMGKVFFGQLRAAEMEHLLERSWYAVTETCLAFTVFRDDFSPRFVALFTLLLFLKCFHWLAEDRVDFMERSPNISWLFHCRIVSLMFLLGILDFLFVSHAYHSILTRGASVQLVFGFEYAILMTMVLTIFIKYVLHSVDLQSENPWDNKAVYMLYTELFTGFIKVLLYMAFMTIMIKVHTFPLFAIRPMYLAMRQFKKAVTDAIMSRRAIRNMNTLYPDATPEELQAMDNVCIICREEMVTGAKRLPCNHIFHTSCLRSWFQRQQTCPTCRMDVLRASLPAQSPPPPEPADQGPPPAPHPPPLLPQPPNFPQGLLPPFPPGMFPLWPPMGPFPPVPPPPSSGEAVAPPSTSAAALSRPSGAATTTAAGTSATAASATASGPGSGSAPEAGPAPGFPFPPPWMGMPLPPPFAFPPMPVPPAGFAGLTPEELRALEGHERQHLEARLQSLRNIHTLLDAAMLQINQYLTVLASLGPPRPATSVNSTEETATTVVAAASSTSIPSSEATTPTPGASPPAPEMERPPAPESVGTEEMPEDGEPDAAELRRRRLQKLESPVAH
UniProt P26639: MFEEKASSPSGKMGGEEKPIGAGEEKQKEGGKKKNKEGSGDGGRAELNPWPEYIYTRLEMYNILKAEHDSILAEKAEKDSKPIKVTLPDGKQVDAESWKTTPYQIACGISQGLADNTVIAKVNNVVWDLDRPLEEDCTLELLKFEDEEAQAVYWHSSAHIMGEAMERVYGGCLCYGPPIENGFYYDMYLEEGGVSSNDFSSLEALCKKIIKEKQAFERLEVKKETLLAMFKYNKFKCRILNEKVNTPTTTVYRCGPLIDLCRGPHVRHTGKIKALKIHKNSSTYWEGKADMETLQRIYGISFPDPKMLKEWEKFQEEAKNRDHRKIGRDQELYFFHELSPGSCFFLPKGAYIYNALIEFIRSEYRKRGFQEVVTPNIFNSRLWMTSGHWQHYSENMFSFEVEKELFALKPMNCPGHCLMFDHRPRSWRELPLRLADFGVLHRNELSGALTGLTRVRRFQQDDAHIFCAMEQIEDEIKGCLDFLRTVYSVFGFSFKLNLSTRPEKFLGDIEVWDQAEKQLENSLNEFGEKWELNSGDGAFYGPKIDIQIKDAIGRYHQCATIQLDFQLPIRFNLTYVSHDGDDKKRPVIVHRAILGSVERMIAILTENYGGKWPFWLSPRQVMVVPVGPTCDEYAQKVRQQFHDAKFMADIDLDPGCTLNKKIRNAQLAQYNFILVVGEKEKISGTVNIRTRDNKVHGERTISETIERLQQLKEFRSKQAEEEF
UniProt Q9NRL3: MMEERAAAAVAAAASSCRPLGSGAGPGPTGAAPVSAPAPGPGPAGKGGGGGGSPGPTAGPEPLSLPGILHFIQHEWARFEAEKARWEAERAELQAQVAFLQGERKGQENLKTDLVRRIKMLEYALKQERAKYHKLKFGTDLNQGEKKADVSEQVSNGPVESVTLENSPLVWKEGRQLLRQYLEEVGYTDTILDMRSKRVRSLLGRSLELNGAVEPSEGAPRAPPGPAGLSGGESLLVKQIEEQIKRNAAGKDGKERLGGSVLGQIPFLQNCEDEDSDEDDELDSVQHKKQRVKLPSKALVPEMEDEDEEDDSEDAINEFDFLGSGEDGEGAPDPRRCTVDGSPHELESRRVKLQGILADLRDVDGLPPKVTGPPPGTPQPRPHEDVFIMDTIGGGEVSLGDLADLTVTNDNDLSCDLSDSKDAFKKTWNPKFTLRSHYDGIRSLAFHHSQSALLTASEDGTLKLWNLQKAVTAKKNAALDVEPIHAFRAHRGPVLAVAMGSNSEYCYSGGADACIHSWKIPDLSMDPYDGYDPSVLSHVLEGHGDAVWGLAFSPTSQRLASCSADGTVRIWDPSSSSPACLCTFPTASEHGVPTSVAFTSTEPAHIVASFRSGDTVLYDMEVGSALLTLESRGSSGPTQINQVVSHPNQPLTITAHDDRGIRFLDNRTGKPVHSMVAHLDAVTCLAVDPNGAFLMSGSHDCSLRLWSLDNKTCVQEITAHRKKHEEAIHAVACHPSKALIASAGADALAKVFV
UniProt Q9H2K8: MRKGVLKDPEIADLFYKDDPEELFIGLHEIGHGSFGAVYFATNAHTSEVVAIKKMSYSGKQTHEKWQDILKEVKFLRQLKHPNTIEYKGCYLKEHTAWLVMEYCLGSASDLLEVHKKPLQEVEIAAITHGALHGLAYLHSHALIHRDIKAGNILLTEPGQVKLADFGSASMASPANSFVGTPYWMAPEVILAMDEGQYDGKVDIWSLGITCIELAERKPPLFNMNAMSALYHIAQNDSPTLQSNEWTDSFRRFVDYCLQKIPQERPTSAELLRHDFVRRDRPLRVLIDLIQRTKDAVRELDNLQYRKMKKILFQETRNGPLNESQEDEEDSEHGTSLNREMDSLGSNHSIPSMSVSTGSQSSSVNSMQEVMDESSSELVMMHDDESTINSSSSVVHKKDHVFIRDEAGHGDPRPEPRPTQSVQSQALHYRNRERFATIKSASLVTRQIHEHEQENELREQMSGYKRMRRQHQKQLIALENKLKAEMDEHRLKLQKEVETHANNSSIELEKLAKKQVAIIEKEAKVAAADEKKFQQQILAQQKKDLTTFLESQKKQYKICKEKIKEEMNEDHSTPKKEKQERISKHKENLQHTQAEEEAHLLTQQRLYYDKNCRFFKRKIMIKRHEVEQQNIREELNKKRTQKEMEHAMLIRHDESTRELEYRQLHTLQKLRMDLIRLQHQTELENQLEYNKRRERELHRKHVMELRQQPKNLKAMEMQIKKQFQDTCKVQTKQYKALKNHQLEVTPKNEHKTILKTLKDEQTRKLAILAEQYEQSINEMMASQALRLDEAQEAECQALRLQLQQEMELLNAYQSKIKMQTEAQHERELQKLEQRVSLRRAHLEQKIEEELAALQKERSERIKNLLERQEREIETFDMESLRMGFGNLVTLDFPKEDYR

[1] = compound: C/C(=N\NC(=O)C1=CC(=CC=C1)S(=O)(=O)N2CCOCC2)/C3=C(C=CC(=C3)Cl)O
Method in brief: as §1

[2] = compound: C1=CC(=C(C=C1Cl)C2=NC3=NC=CN=C3C(=N2)NC4=CC=NC=C4)F
Method in brief: as §1

[3] = compound: C1=CC(=CC=C1C2=NC3=C(N2)C=C(C=C3)C(=O)N)OC4=CC=C(C=C4)Cl
Method in brief: as §1

[4] = compound: C1=CC2=C(C=CC(=C2)/C=C\3/C(=O)NC(=NCC4=CC=CS4)S3)N=C1
Method in brief: as §1

[5] = compound: C1=CC2=NC=CN=C2C=C1/C=C/3\C(=O)NC(=O)S3
Method in brief: as §1

[6] = compound: C1=CC=C(C=C1)C2=NC(=C(N2)C3=CC=NC=C3)C4=CC(=C(C=C4)Cl)O
Method in brief: as §1

[7] = compound: C1=CC=C2C(=C1)C3=NNC4=CC=CC(=C43)C2=O
Method in brief: as §1

[8] = compound: C1CCN(C1)C(=O)NC2=CC=CC(=C2)NC3=NC=C(C(=N3)NCCC4=CN=CN4)Br
Method in brief: as §1

[9] = compound: C1CN(CCC1(CC2=CC=C(C=C2)Cl)N)C3=NC=NC4=C3C=CN4
Method in brief: as §1

IRAK-1-4 Inhibitor I = compound: C1COCCN1CCN2C3=CC=CC=C3N=C2NC(=O)C4=CC(=CC=C4)[N+](=O)[O-] [IRAK-1-4 Inhibitor I]
Method in brief: as §1

ibrutinib = compound: C=CC(=O)N1CCC[C@@H](n2nc(-c3ccc(Oc4ccccc4)cc3)c3c(N)ncnc32)C1 [ibrutinib]
Method in brief: as §1

[10] = compound: CC(=O)c1cnc2ccc(-c3cc(Cl)c(O)c(Cl)c3)nc2c1N[C@H]1CC[C@H](CN(C)C)CC1
Method in brief: as §1

ralimetinib = compound: CC(C)(C)Cn1c(N)nc2ccc(-c3[nH]c(C(C)(C)C)nc3-c3ccc(F)cc3)nc21 [ralimetinib]
Method in brief: as §1

[11] = compound: CC(C)(O)CC(=O)NCCn1ccc2ncnc(Nc3ccc(Oc4cccc(C(F)(F)F)c4)c(Cl)c3)c21
Method in brief: as §1

[12] = compound: CC(C)C1=C2N=C(C=C(N2N=C1)NCC3=CC=CC=C3)NCCCCCCN
Method in brief: as §1

[13] = compound: CC(C)C[C@@H](C=O)NC(=O)[C@H](CC(C)C)NC(=O)[C@H](CC(C)C)NC(=O)OCc1ccccc1
Method in brief: as §1

pinometostat = compound: CC(C)N(C[C@H]1O[C@@H](n2cnc3c(N)ncnc32)[C@H](O)[C@@H]1O)[C@H]1C[C@@H](CCc2nc3cc(C(C)(C)C)ccc3[nH]2)C1 [pinometostat]
Method in brief: as §1

[14] = compound: CC1=C(C(CC(=O)N1)C2=CC=C(C=C2)C(F)(F)F)C(=O)NC3=C(C=C4C(=C3)C=NN4)F
Method in brief: as §1

[15] = compound: CC1=C(C2=C(C=C1)C(=O)C3=CC=CC=C3N2CCCN)C
Method in brief: as §1

Target | log2 fold change (erlotinib) | log2 fold change [1] | log2 fold change [2] | log2 fold change [3] | log2 fold change [4] | log2 fold change [5] | log2 fold change [6] | log2 fold change [7] | log2 fold change [8] | log2 fold change [9] | log2 fold change (IRAK-1-4 Inhibitor I) | log2 fold change (ibrutinib) | log2 fold change [10] | log2 fold change (ralimetinib) | log2 fold change [11] | log2 fold change [12] | log2 fold change [13] | log2 fold change (pinometostat) | log2 fold change [14] | log2 fold change [15]
STRADA (UniProt Q7RTN6) | inactive: -0.015 | inactive: -0.039 | inactive: -0.013 | inactive: 0.036 | inactive: 0.007 | inactive: 0.037 | inactive: 0.022 | inactive: -0.05 | inactive: 0.026 | inactive: 0.036 | inactive: 0.076 | inactive: 0.058 | inactive: -0.116 | inactive: -0.05 | inactive: -0.115 | inactive: 0.093 | inactive: 0.034 | inactive: -0.029 | inactive: 0.019 | inactive: -0.047
SYP (UniProt P08247) | inactive: -0.032 | inactive: -0.111 | inactive: -0.02 | inactive: 0 | inactive: 0.051 | inactive: 0.03 | inactive: -0.07 | inactive: -0.02 | inactive: 0.063 | inactive: 0.039 | inactive: 0.045 | inactive: 0.003 | inactive: 0.009 | inactive: -0.073 | inactive: 0.055 | inactive: 0.05 | inactive: 0.006 | inactive: 0.034 | inactive: -0.059 | inactive: -0.054
SYAP1 (UniProt Q96A49) | inactive: -0.007 | inactive: 0.03 | inactive: 0.095 | inactive: -0.021 | inactive: 0 | inactive: 0.093 | inactive: 0 | inactive: -0.004 | inactive: 0.031 | inactive: 0.005 | inactive: 0.025 | inactive: -0.044 | inactive: -0.007 | inactive: -0.012 | inactive: -0.015 | inactive: 0.004 | inactive: -0.034 | inactive: -0.028 | inactive: -0.007 | inactive: 0.013
STMN1 (UniProt P16949) | inactive: 0.011 | inactive: -0.009 | inactive: 0.015 | inactive: 0.019 | inactive: -0.029 | inactive: 0.004 | inactive: -0.014 | inactive: 0.058 | inactive: 0.06 | inactive: 0.073 | inactive: 0.034 | inactive: -0.064 | inactive: 0.044 | inactive: -0.016 | inactive: 0.069 | inactive: 0.104 | inactive: -0.025 | inactive: -0.063 | inactive: 0.044 | inactive: -0.013
SYVN1 (UniProt Q86TM6) | inactive: 0.04 | inactive: 0.035 | inactive: -0.024 | inactive: 0.034 | inactive: 0.077 | inactive: 0.078 | inactive: 0.053 | inactive: -0.022 | inactive: 0.005 | inactive: 0.031 | inactive: -0.042 | inactive: -0.067 | inactive: -0.003 | inactive: 0.006 | inactive: 0.04 | inactive: -0.095 | inactive: -0.003 | inactive: -0.076 | inactive: -0.018 | inactive: 0.094
TARS1 (UniProt P26639) | inactive: 0.018 | inactive: 0.074 | inactive: 0.044 | inactive: 0.019 | inactive: 0.033 | inactive: -0.005 | inactive: 0.028 | inactive: 0.027 | inactive: 0.011 | inactive: -0.016 | inactive: -0.004 | inactive: 0.006 | inactive: -0.005 | inactive: 0.022 | inactive: -0.062 | inactive: -0.156 | inactive: -0.053 | inactive: 0.01 | inactive: 0.011 | inactive: -0.007
STRN4 isoform 3 (UniProt Q9NRL3) | inactive: 0.022 | inactive: 0.068 | inactive: 0.018 | inactive: -0.024 | inactive: 0 | inactive: -0.011 | inactive: 0.024 | inactive: 0.043 | inactive: -0.02 | inactive: 0.038 | inactive: 0.003 | inactive: -0.063 | inactive: -0.026 | inactive: 0.006 | inactive: -0.061 | inactive: 0.003 | inactive: -0.006 | inactive: 0.019 | inactive: -0.067 | inactive: -0.009
TAOK3 (UniProt Q9H2K8) | inactive: -0.017 | inactive: 0.08 | inactive: 0.009 | inactive: 0.037 | inactive: 0.02 | inactive: 0.018 | inactive: 0.018 | inactive: -0.007 | inactive: -0.044 | inactive: 0.007 | inactive: 0.007 | inactive: 0.002 | active: -0.48 | inactive: 0.009 | inactive: -0.011 | inactive: 0.007 | inactive: 0.033 | inactive: 0.012 |  | inactive: 0.035

From the supplement of paper PMC10849652
